Assay results published in patent US20220332811A1 (NOVAROCK BIOTHERAPEUTICS, published 2022).
Changes are numbered by the printed parent chain. No constants are given. Whether binding was seen depends on the method and setting. Some entries that bind do so weakly or less than the wild type.

Sequences of proteins named here, by UniProt entry; tags and fusion partners are left off. A change or cut given only in a name is not applied to a line headed by its entry.
UniProt Q9NPF7: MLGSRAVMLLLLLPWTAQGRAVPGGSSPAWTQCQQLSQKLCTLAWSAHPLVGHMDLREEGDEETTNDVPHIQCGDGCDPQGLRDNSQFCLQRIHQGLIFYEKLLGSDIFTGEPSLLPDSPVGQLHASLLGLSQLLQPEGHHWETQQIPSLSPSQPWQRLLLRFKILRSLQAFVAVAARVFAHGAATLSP
UniProt P43432: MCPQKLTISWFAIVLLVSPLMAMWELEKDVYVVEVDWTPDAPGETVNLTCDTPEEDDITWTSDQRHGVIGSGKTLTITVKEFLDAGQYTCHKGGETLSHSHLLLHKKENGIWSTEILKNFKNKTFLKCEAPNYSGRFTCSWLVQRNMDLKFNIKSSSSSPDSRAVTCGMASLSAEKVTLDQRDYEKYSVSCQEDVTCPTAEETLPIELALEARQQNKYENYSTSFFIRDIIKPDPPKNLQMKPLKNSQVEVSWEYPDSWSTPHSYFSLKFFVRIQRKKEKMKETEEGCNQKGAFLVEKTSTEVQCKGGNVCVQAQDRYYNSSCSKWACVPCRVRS

B1: Hu-2 18006B (antibody, V domains shown)
VH: QVQLVQSGAEVKKPGASVKVSCKASGYTFTTYGISWVRQAPGQGLEWMGWISAYNGNTKYAQKLQGRVTMTTDTSTSTAYMELRSLRSDDTAVYYCAREWRAFYYYGLDVWGQGTTVTVSS
VL: DIVMTQTPLSSPVTLGQPASISCRSSQSLEHSDGNTYLSWLQQRPNQPPRLLIYKVSNRFSGVPDRFSGSGAGTDFTLKISRVEAEDVGVYYCTQATQFPLTFGGGTKVEIK
notes: Purified from hybridoma (Trianni mice); also called H-2 1800B (mIgG1)
B2: Hu-6 18006B* (recombinant mIgG2a) (antibody, V domains shown)
VH: QVQLVQSGAEVKKPGASVKVSCKTSGYTFTYYGISWVRQAPGQGLEWMGLISAYNGNTNYGQKVQGRVTMTTDTSTSTAYMELRSLRSDDTAVYYCVTENINWRDAFDIWGQGTMVTVSS
VL: EIVLTQSPDFQSVTPKEKVTITCRASQTIGSSLHWYQQKPDQSPKLLIKYASQSISGVPSRFSGSGSGTDFTLTINSLEAEDAAAYYCHQSSSLPYTFGQGTKLEIK
B3: Hu-4 18006B* (recombinant, mIgG2a) (antibody, V domains shown)
VH: QVHLVQSGAEVKKPGASVKVSCKASGYTFSSYGINWVRQAPGQGLEWMGWISAYSGNTDYSQHLQGRVTMTTDTSTNTAYMELRSLRSDDTAVYYCARASANWYDYFDPWGQGTLVTVSS
VL: B2 VL with S31G, K49T, I55F, N76H, A85T, S93I
B4: Hu-4 18006B (purified from hybridoma) (antibody, IgG2c, V domains shown)
VH: B3 VH
VL: B2 VL with S31G, K49T, I55F, N76H, A85T, S93I
B5: Hu-4 18006B** (recombinant, hIgG4) (antibody, V domains shown)
VH: B3 VH
VL: B2 VL with S31G, K49T, I55F, N76H, A85T, S93I
B6: Hu-5 18006B (antibody, IgG2b, V domains shown)
VH: QLQLQESGPGLVKPSETLSLTCTVSGGSISSSSFYWGWIRQPPGKGLEWIGSIYYSGSTYYNPSLKSRVTISVDTSKNQFSLKLSSVTAADTAVYFCARHGVRGVIPHFDYWGQGTLVTVSS
VL: QTVLTQEPSFSVSPGGTVTLTCGLNSGSVSTIYYPSWYQQTPGQAPRALIYSTNTRSSGVPDRFSGSILGNKAALTITGAQADDESDYYCVLFLGSGLVFGGGTKLTVL
notes: Purified from hybridoma

molecular target: T1, human p19/mouse p40 heterodimer protein (human; mouse) (UniProt Q9NPF7+P43432); test: ELISA

binding, binds:
B1
B2
B3
B4

molecular target: T1, human p19/mouse p40 heterodimer protein (human; mouse); test: SPR (BIAcore)

binding, binds:
B5
B1
B6
B2
B3

molecular target: T1, human p19/mouse p40 heterodimer protein (human; mouse); test: ELISA; antigen coated directly on plate

binding, binds:
B1
B2
B3
B4

molecular target: T1, human p19/mouse p40 heterodimer protein (human; mouse); test: SPR (BIAcore); antibody captured on anti-Fc chip, antigen injected

binding, binds:
B5
B1
B6
B2
B3
